PubChem BioAssay AID1224828 | NIAID – 2016
Assay: 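Regulators linking TLR4 signalling to p65 nuclear translocation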 (primary screen). System: mouse RAW264.7 G9 macrophage reporter cells (GFP-p65, Tnf promoter-mCherry). Knock-down reagent: siRNA pool against mouse genes, 100 nM. Duration: 2 days siRNA transfection, then 40 min LPS before fixation. Treatment: LPS (Salmonella minnesota R595) at 10 ng/ml. Measurement: 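Imaged p65 nuclear translocation ratio, normalised to the plate median, converted to robust z-scores and averaged across two replicates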. Reading the numbers: p65 translocation robust z-score: higher = more nuclear NF-kappaB p65 after LPS than the plate median; nuclear/cytoplasmic p65 ratio: higher = more nuclear NF-kappaB p65. Active means: 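Called active when z exceeds 3.3 or falls under -1.56 (median of Tlr4 controls), giving activity score of at least 50; no calls for control wells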. Meaning of the calls: active = hit (p65 shift raised or lowered); inactive = no clear change.
This is an unselected part of about 17,000 reagents. 762 of them (4.5%) count as active. 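Active calls include both raised and lowered p65 entry, mostly lowered; wells with fewer than 50 cells lack a z-score.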 Raw values are not corrected between plates.

| Target gene | p65 translocation robust z-score | nuclear/cytoplasmic p65 ratio, rep 1 | nuclear/cytoplasmic p65 ratio, rep 2 | low cell count flag | Outcome |
| --- | --- | --- | --- | --- | --- |
| D930030D11Rik | -0.64 | 1.41 | 1.52 | enough cells to score | inactive |
| Nlgn2 | 0.43 | 1.83 | 1.55 | enough cells to score | inactive |
| Dtymk | 0.1 | 1.65 | 1.44 | enough cells to score | inactive |
| Ndst3 | -0.67 | 1.69 | 1.48 | enough cells to score | inactive |
| Wfdc2 | – | 1.53 | – | fewer than 50 cells per well; well left out of scoring | inactive |
| Myl2 | -0.24 | 1.4 | 1.32 | enough cells to score | inactive |
| Cer1 | 0.63 | 1.63 | 1.95 | enough cells to score | inactive |
| 1700006J14Rik | – | 1.34 | 1.43 | fewer than 50 cells per well; well left out of scoring | inactive |
| Mospd1 | -1.83 | 1.55 | 1.27 | enough cells to score | active |
| Cyp2c29 | 1.71 | 1.76 | 2.13 | enough cells to score | inactive |
| Adamts19 | 0.63 | 1.77 | 1.66 | enough cells to score | inactive |
| Vmn1r190-ps | -0.8 | 1.29 | 1.13 | enough cells to score | inactive |
| Tmc1 | -0.37 | 1.47 | 1.47 | enough cells to score | inactive |
| Cacng7 | 1.1 | 1.81 | 1.9 | enough cells to score | inactive |
| Abhd17c | – | 1.28 | 1.06 | fewer than 50 cells per well; well left out of scoring | inactive |
| Tas2r121 | -0.4 | 1.5 | 1.48 | enough cells to score | inactive |
| Sms | 0.53 | 1.63 | 1.62 | enough cells to score | inactive |
| Ech1 | 0.46 | 1.29 | 1.41 | enough cells to score | inactive |
| Or6k4 | – | 1.26 | 1.29 | fewer than 50 cells per well; well left out of scoring | inactive |
| Fam133b | 2.22 | 1.66 | 1.75 | enough cells to score | inactive |
| Terf2 | -0.18 | 1.49 | 1.58 | enough cells to score | inactive |
| Tspan12 | 2.01 | 1.62 | 1.3 | enough cells to score | inactive |
| Adh4 | 0.96 | 1.87 | 1.66 | enough cells to score | inactive |
| Pde6c | -1 | 0.979 | 1.59 | enough cells to score | inactive |
| Fzd5 | 0.3 | 1.52 | 1.66 | enough cells to score | inactive |
| Shprh | 1.13 | 1.27 | 1.39 | enough cells to score | inactive |
| Kcnf1 | 0.59 | 1.49 | 1.51 | enough cells to score | inactive |
| Men1 | 0.23 | 1.48 | 1.36 | enough cells to score | inactive |
| Dmwd | -1.5 | 1.34 | 1.13 | enough cells to score | inactive |
| Khdrbs1 | 1.18 | 1.6 | 1.56 | enough cells to score | inactive |
| Or2at4 | – | 1.36 | 1.17 | fewer than 50 cells per well; well left out of scoring | inactive |
| Paqr7 | -0.12 | 1.48 | 1.33 | enough cells to score | inactive |
| Rpl15 | – | 1.76 | 1.33 | fewer than 50 cells per well; well left out of scoring | inactive |
| Dnajc5 | 2.4 | 1.79 | 1.57 | enough cells to score | inactive |
| Prpf4 | 0.2 | 1.53 | 1.43 | enough cells to score | inactive |
| Tdg | -1.23 | 1.21 | 1.13 | enough cells to score | inactive |
| Fem1a | 2.33 | 1.65 | 1.79 | enough cells to score | inactive |
| Slc10a3 | 2.49 | 1.73 | 1.19 | enough cells to score | inactive |
| AI467606 | -0.51 | 1.48 | 1.66 | enough cells to score | inactive |
| Or11l3 | 0.31 | 1.67 | 1.45 | enough cells to score | inactive |
| Zwilch | – | 1.2 | 1 | fewer than 50 cells per well; well left out of scoring | inactive |
| 9330132A10Rik | 2.58 | 1.74 | 1.94 | enough cells to score | inactive |
| Proser2 | -1.89 | 1.08 | 1.25 | enough cells to score | active |
| Paics | -0.66 | 1.37 | 1.31 | enough cells to score | inactive |
| Arhgef16 | -0.75 | 1.46 | 1.55 | enough cells to score | inactive |
| Or4k15c | – | 1.74 | 1.23 | fewer than 50 cells per well; well left out of scoring | inactive |
| Tmem254 | 0.71 | 1.58 | 2.01 | enough cells to score | inactive |
| Neu2 | -0.59 | 1.69 | 1.53 | enough cells to score | inactive |
| H2-Q8 | 0.87 | 1.67 | 1.68 | enough cells to score | inactive |
| Rab4a | 0.72 | 1.74 | 1.5 | enough cells to score | inactive |
| Tymp | -1.36 | 1.3 | 1.17 | enough cells to score | inactive |
| Taok3 | -1.9 | 1.32 | 1.26 | enough cells to score | active |
| Trip6 | 0.7 | 1.56 | 1.65 | enough cells to score | inactive |
| Hoxb5 | 0 | 1.41 | 1.4 | enough cells to score | inactive |
| Nos3 | – | 1.65 | 1.51 | fewer than 50 cells per well; well left out of scoring | inactive |
| Klf1 | 1.01 | 1.69 | 1.44 | enough cells to score | inactive |
| Itga10 | -1.5 | 1.25 | 1.21 | enough cells to score | inactive |
| D6Ertd160e | -1.91 | 1.25 | 1.32 | enough cells to score | active |
| Ttl | -0.92 | 1.27 | 1.13 | enough cells to score | inactive |

Active calls, of those listed so far:
| Target gene | p65 translocation robust z-score | nuclear/cytoplasmic p65 ratio, rep 1 | nuclear/cytoplasmic p65 ratio, rep 2 | low cell count flag | Outcome |
| --- | --- | --- | --- | --- | --- |
| Mospd1 | -1.83 | 1.55 | 1.27 | enough cells to score | active |
| Proser2 | -1.89 | 1.08 | 1.25 | enough cells to score | active |
| Taok3 | -1.9 | 1.32 | 1.26 | enough cells to score | active |
| D6Ertd160e | -1.91 | 1.25 | 1.32 | enough cells to score | active |
